We go through 2 molecules from paper PMC8984140.

By UniProt entry, the sequences of proteins in these tests, tags left out.
UniProt O88275: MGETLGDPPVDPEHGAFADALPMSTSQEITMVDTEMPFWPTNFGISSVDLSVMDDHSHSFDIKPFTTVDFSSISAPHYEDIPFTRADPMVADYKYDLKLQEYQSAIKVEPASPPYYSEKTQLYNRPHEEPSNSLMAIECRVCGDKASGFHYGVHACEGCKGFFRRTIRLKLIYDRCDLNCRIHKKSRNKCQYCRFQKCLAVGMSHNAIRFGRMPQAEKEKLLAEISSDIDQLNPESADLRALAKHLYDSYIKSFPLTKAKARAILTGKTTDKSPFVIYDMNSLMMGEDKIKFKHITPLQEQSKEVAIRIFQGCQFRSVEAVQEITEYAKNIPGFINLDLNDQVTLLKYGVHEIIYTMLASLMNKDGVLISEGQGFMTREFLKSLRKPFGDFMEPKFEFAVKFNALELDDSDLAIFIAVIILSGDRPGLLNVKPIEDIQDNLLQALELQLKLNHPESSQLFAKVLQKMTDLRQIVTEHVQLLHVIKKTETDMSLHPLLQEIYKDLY

Assay [1] concerns the target peroxisome proliferator-activated receptor γ (PPARγ) (rat (endogenous in primary astrocytes)) (UniProt O88275). The assay is described as follows: condition: only OGD and α-asaronol treatment of the astrocytes; co-IP; same anti-PPARγ co-IP; astrocytes after OGD and α-asaronol treatment.
The target is the same in assay [2]. The assay is described as follows: co-IP; lysate of primary rat astrocytes (500 μg protein) precipitated with rabbit polyclonal anti-PPARγ antibody and protein A-Sepharose, washed six times (buffer pH 7.4, 10 mM MgCl2, 1% NP-40), blotted for PGC-1α and HDAC3; cells were control, OGD/R, OGD/R + α-asaronol, or OGD/R + α-asaronol + GW9662.

No constants are given. Whether binding was seen depends on the method and setting. In cells and extracts the contact can be indirect. Some entries that bind do so weakly or less than the wild type. Sequences can lack the tags named with a protein.

B1: histone deacetylase 3 (HDAC3) (protein, UniProt Q6P6W3 1-428)
chain: MAKTVAYFYDPDVGNFHYGAGHPMKPHRLALTHSLVLHYGLYKKMIVFKPYQASQHDMCRFHSEDYIDFLQRVSPTNMQGFTKSLNAFNVGDDCPVFPGLFEFCSRYTGASLQGATQLNNKICDIAINWAGGLHHAKKFEASGFCYVNDIVIGILELLKYHPRVLYIDIDIHHGDGVQEAFYLTDRVMTVSFHKYGNYFFPGTGDMYEVGAESGRYYCLNVPLRDGIDDQSYKHLFQPVISQVVDFYQPTCIVLQCGADSLGCDRLGCFNLSIRGHGECVEYVKSFNIPLLVLGGGGYTVRNVARCWTYETSLLVEEAISEELPYSEYFEYFAPDFTLHPDVSTRIENQNSRQYLDQIRQTIFENLKMLNHAPSVQIHDVPADLLTYDRTDEADAEERGPEENYSRPEAPNEFYDGDHDNDKESDVEI
Take B1: the binding entry in assay [1] is recorded as “no binding”; in assay [2] it was “binds”.

B2: peroxisome proliferator-activated receptor-γ coactivator-1 alpha (PGC-1α) (protein, UniProt Q9QYK2 1-796)
chain: MAWDMCSQDSVWSDIECAALVGEDQPLCPDLPELDLSELDVNDLDTDSFLGGLKWCSDQSEIISNQYNNEPANIFEKIDEENEANLLAVLTETLDSLPVDEDGLPSFDALTDGDVTTDNEASPSSMPDGTPPPQEAEEPSLLKKLLLAPANTQLSYNECSGLSTQNHANHTHRIRTNPAIVKTENSWSNKAKSICQQQKPQRRPCSELLKYLTTNDDPPHTKPTENRNSSRDKCASKKKSHTQPQSQHAQAKPTTLSLPLTPESPNDPKGSPFENKTIERTLSVELSGTAGLTPPTTPPHKANQDNPFKASPKLKPSCKTVVPPPTKRARYSECSGTQGSHSTKKGPEQSELYAQLSKSSVLSRGHEERKTKRPSLRLFGDHDYCQSVNSKTDILINISQELQDSRQLDFKDASCDWQGHICSSTDSSQCYLRETLEASKQVSPCSTRKQLQDQEIRAELNKHFGHPSQAVFDDKVDKTSELRDGNFSNEQFSKLPVFINSGLAMDGLFDDSEDENDKLSYPWDGTQSYSLFDVSPSCSSFNSPCRDSVSPPKSLFSQRPQRMRSRSRSFSRHRSCSRSPYSRSRSRSPGSRSSSRSCYYYESSHYRHRTHRNSPLYVRSRSRSPYSRRPRYDSYEANEHERLKRDEYRREYEKRESERAKQRERQKQKAIEERRVIYVGKIRPDTTRTELRDRFEVFGEIEECTVNLRDDGDSYGFITYRYTCDAFAALENGYTLRRSNETDFELYFCGRKQFFKSNYADLDSNSDDFDPASTKSKYDSLDFDSLLKEAQRSLRR
With B2, in assay [2], the binding entry was “binds”.
